Measured values from article PMC7280518.
These are yes or no findings as the source states them, for the method shown. For some assays here: In cells and extracts the contact can be indirect. Some entries that bind do so weakly or less than the wild type.

Sequences of proteins named here, by UniProt entry; tags and fusion partners are left off.
UniProt Q9WTZ1: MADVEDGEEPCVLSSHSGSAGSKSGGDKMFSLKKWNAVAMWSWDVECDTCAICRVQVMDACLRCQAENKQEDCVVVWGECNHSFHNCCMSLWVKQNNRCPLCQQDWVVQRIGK

How the values were obtained:
[1] = target: Human Cullin 5 (CUL5), full-length (human) (UniProt Q93034); experiment: pull-down + SEC; sub-complexes co-expressed in E. coli, or lysates combined, then Ni-NTA (His8 on ASB9, His6 on CUL5) and Superdex S200; composition by SEC, SDS-PAGE and LC-MS/MS
[2] = target: Human Cullin 5 (CUL5), full-length (human) (UniProt Q93034); experiment: cryo-EM structure; CUL5-RBX2 co-expressed in E. coli and purified as a complex; 1-5 uM, 0.01-0.05% beta-OG, 20 degree tilt; 5.2 A (GSFSC); both purified

- binding [1]: binds
- binding [2]: binds
Substance: Mouse RBX2 (RING-box protein 2) (from UniProt Q9WTZ1 1-113)
